Record: PubChem BioAssay AID1508597 (Cure First, 2020)

Screen: 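Genes whose silencing sensitises or protects ovarian cancer cells against rucaparib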 (primary screen)
Cell system: human ovarian carcinoma lines grown from tumours: OCI-P5x (papillary serous) and OCI-C5x (clear cell)
Knock-down reagent: siRNA pool against human genes, 1.25 pmol siRNA per well
Time to read-out: 72 h or 96 h, depending on the cell culture
Challenge: rucaparib 20 µM (about IC30) or vehicle, present until read-out
Measured: 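ATP luminescence measured at 72 or 96 h according to the culture, then normalised and expressed as percent viability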
Direction: viability, normalised: higher = more viable cells remaining
Hit rule: 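a well counts as a hit if its normalised viability is under 80 percent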
Calls: active = viability under 80%; inactive = viability 80% or more
Shown is a random part of about 2,100 deposited reagents. 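Calls flag viability under 80% in either arm, not effects specific to rucaparib; the reference for percent is not stated.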 Some reagents were tested in more than one well and are listed for each. Not given: the 100% reference.

gene knocked down,rucaparib or vehicle,cell line,technical replicate,"viability, normalised (%)",call
MELK (maternal embryonic leucine zipper kinase),Rucaparib,OCI-C5x (clear cell),1,27.9,active
MELK (maternal embryonic leucine zipper kinase),Rucaparib,OCI-C5x (clear cell),2,30.9,active
MELK (maternal embryonic leucine zipper kinase),Rucaparib,OCI-C5x (clear cell),3,34,active
MELK (maternal embryonic leucine zipper kinase),Rucaparib,OCI-P5x (serous),1,63,active
MELK (maternal embryonic leucine zipper kinase),Rucaparib,OCI-P5x (serous),2,61,active
MELK (maternal embryonic leucine zipper kinase),Rucaparib,OCI-P5x (serous),3,58.2,active
MELK (maternal embryonic leucine zipper kinase),Vehicle,OCI-C5x (clear cell),1,65.1,active
MELK (maternal embryonic leucine zipper kinase),Vehicle,OCI-C5x (clear cell),2,35.3,active
MELK (maternal embryonic leucine zipper kinase),Vehicle,OCI-C5x (clear cell),3,51.6,active
MELK (maternal embryonic leucine zipper kinase),Vehicle,OCI-P5x (serous),1,63.8,active
MELK (maternal embryonic leucine zipper kinase),Vehicle,OCI-P5x (serous),2,73.4,active
MELK (maternal embryonic leucine zipper kinase),Vehicle,OCI-P5x (serous),3,69.5,active
GSK3A (glycogen synthase kinase 3 alpha),Rucaparib,OCI-C5x (clear cell),1,46.5,active
GSK3A (glycogen synthase kinase 3 alpha),Rucaparib,OCI-C5x (clear cell),1,41.4,active
GSK3A (glycogen synthase kinase 3 alpha),Rucaparib,OCI-C5x (clear cell),2,33.1,active
GSK3A (glycogen synthase kinase 3 alpha),Rucaparib,OCI-C5x (clear cell),2,37.2,active
GSK3A (glycogen synthase kinase 3 alpha),Rucaparib,OCI-C5x (clear cell),3,51.4,active
GSK3A (glycogen synthase kinase 3 alpha),Rucaparib,OCI-C5x (clear cell),3,40.5,active
GSK3A (glycogen synthase kinase 3 alpha),Rucaparib,OCI-P5x (serous),1,102,inactive
GSK3A (glycogen synthase kinase 3 alpha),Rucaparib,OCI-P5x (serous),1,61.2,active
GSK3A (glycogen synthase kinase 3 alpha),Rucaparib,OCI-P5x (serous),2,63.7,active
GSK3A (glycogen synthase kinase 3 alpha),Rucaparib,OCI-P5x (serous),2,110,inactive
GSK3A (glycogen synthase kinase 3 alpha),Rucaparib,OCI-P5x (serous),3,89.7,inactive
GSK3A (glycogen synthase kinase 3 alpha),Rucaparib,OCI-P5x (serous),3,68.2,active
GSK3A (glycogen synthase kinase 3 alpha),Vehicle,OCI-C5x (clear cell),1,42.2,active
GSK3A (glycogen synthase kinase 3 alpha),Vehicle,OCI-C5x (clear cell),1,35.7,active
GSK3A (glycogen synthase kinase 3 alpha),Vehicle,OCI-C5x (clear cell),2,52.3,active
GSK3A (glycogen synthase kinase 3 alpha),Vehicle,OCI-C5x (clear cell),2,36.8,active
GSK3A (glycogen synthase kinase 3 alpha),Vehicle,OCI-C5x (clear cell),3,28.7,active
GSK3A (glycogen synthase kinase 3 alpha),Vehicle,OCI-C5x (clear cell),3,49.6,active
GSK3A (glycogen synthase kinase 3 alpha),Vehicle,OCI-P5x (serous),1,88.6,inactive
GSK3A (glycogen synthase kinase 3 alpha),Vehicle,OCI-P5x (serous),1,61.5,active
GSK3A (glycogen synthase kinase 3 alpha),Vehicle,OCI-P5x (serous),2,85.3,inactive
GSK3A (glycogen synthase kinase 3 alpha),Vehicle,OCI-P5x (serous),2,51.3,active
GSK3A (glycogen synthase kinase 3 alpha),Vehicle,OCI-P5x (serous),3,70.6,active
GSK3A (glycogen synthase kinase 3 alpha),Vehicle,OCI-P5x (serous),3,75.8,active

Part of the list above, set out differently:
gene knocked down	rucaparib or vehicle	cell line	technical replicate	viability, normalised (%)	call
MELK (maternal embryonic leucine zipper kinase)	Vehicle	OCI-C5x (clear cell)	3	51.6	active
MELK (maternal embryonic leucine zipper kinase)	Vehicle	OCI-P5x (serous)	1	63.8	active
MELK (maternal embryonic leucine zipper kinase)	Vehicle	OCI-P5x (serous)	2	73.4	active
MELK (maternal embryonic leucine zipper kinase)	Vehicle	OCI-P5x (serous)	3	69.5	active
GSK3A (glycogen synthase kinase 3 alpha)	Rucaparib	OCI-C5x (clear cell)	1	46.5	active
